# Assay results

From PubChem BioAssay record AID1159506 (NCATS, 2015).

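Genome-wide siRNA knockdown in TC32 Ewing sarcoma cells, comparing luciferase light from an NR0B1-promoter reporter with a CMV-promoter reporter 48 hours after transfection.
Each siRNA was applied at 20 nM.
A z-score of the log NR0B1-over-CMV signal, less the median of siRNAs with the same seed; more negative means a stronger specific loss of the NR0B1 reporter.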

This is part of the screen; most of the strongest results are not listed here.
Sequences are the guide (antisense) strand, without overhang.

| # | strand | gene | seed-corrected z-score |
|---|---|---|---|
| 1 | `GCAAUGGUCCGUUGCAUGC` | UQCRHP2 | 0.2209 |
| 2 | `AAAGUCACAACUCAUAGAG` | CIDEB | 1.311 |
| 3 | `UAAAUAUCCAUGCAUACUU` | CDKN2AIPNL | -0.1289 |
| 4 | `UUCUGUUCUGCCUUGACCA` | TNNT1 | -0.1661 |
| 5 | `AUCGCUUUGAUGUUUCUUG` | TADA2A | -1.08 |
| 6 | `UUAUCAUAGAGAGUCUUCC` | APBB1IP | 0.4384 |
| 7 | `UACUUGUUGAGGUAGGGCA` | DEF6 | -1.516 |
| 8 | `UGAGAGUUGAGGUAUCCGG` | NIT1 | -0.253 |
| 9 | `UUUGAAUCUGCUUGUAGGC` | PTRH2 | 0.4422 |
| 10 | `UCGGCUUCGAGAAAUCUCC` | SYBU | -1.053 |
| 11 | `UGAAGUUCAAAGAGGUUGG` | TLX1NB | -0.2019 |
| 12 | `UAAGUGAAGCGACUCUUGC` | ZNF785 | 0.2093 |
| 13 | `UAGUAUACCUGUUUGAGGC` | NRM | 0.976 |
| 14 | `UUUGUAGAAACAUCUGACG` | LOC401021 | 1.623 |
| 15 | `UCAGGGAAACCAAUGACAG` | ZNF574 | 0.6688 |
| 16 | `AUACGAUUUAAAAUCGCUG` | HSD17B13 | 1.544 |
| 17 | `UCACUGUCAAUCACCUCGU` | CLEC18A | -1.157 |
| 18 | `UACUGGUCAAAUGAGAUUU` | KIR3DX1 | 0.6117 |
| 19 | `UCCUUCAACGCAGUCAUGG` | GAS6-AS1 | 0.2322 |
| 20 | `UAGUAUGCUAUCAAUUUCC` | MXRA5 | -0.2191 |
| 21 | `UAAGGAUUGAGGAUCGAUU` | ZNF676 | -0.05909 |
| 22 | `UUCAUGUUGACAAAGGUCC` | NFKBID | 0.4115 |
| 23 | `UAAGUCUCCUCUCAAAAGC` | CNEP1R1 | 0.8677 |
| 24 | `AACAGCCCAAGUCUGGGUC` | WASH6P | -1.491 |
| 25 | `UACAGUUUGAUCUGGGAUG` | TFAP2A | 0.9596 |
| 26 | `UUUGUUGAUGGAUUUCUCC` | PHYHD1 | -0.9078 |
| 27 | `AAUAAGUCCAAGAUCUUCC` | KDM5B | -0.2012 |
| 28 | `UUCCUUACGGAUUUCAUCC` | RGAG4 | 0.5606 |
| 29 | `AUAGGAGUUGUAUCGCUGG` | DENND5B | -0.6073 |
| 30 | `UGCCUUAACACUCAUCACC` | DTX4 | -1.106 |
| 31 | `UGCCGAACAAGUGUAGAUC` | ZNF132 | -0.41 |
| 32 | `UAAUGGAUAACAAAUAGCC` | OR51I1 | 0.6345 |
| 33 | `UUCCAGCUCCGACAGAUCC` | MLLT11 | 0.182 |
| 34 | `CACGGGUACCCUCCUAUUG` | BAGE4 | 0.356 |
| 35 | `UCGCUUCGAAUUAAAGACC` | ZNF765 | -0.9448 |
| 36 | `UCCUUGUGCAAAUAGGUGG` | POMT2 | 0.2523 |
| 37 | `UCUGAUCCAAACAAGUUUG` | CCDC67 | -0.2684 |
| 38 | `AAAUCUGAGAAUUAAGUCC` | STK38L | 0.2086 |
| 39 | `UGAUAUUUUAGACUCUUCA` | C5orf58 | 0.3711 |
| 40 | `UGUAGGAUUACUUCCAGUC` | AP1AR | -0.1348 |
| 41 | `AUCGAUUUAAGUACCUUUC` | TMA16 | -0.1305 |
| 42 | `UAGGGUUAUCCCUUCUCCC` | CD74 | 0.2722 |
| 43 | `UUUAGUAUCCACCUGACGC` | NT5C2 | -0.3738 |
| 44 | `UCAAUGACAUGAUUAGAUG` | PRMT5 | -0.1397 |
| 45 | `UUUGCUAAACCUUUAUCCC` | GLIPR1L1 | -0.2922 |
| 46 | `ACAUUUCUUGGACUGUUCG` | GALNT12 | -0.06822 |
| 47 | `AAUCGAAAAAUCCCGUUUC` | OCA2 | 0.1884 |
| 48 | `AAUUCGAUGAUGCCUCUCC` | PLEKHO1 | -0.1276 |
| 49 | `UGGGCGUAAAGCAUAGUGG` | ARSI | 0.08424 |
| 50 | `AAAUCUUGUAAUCAGCUGC` | NEDD8 | -0.4459 |
| 51 | `UUUGAUAACCUCCUGCUGG` | C12orf57 | 0.4996 |
| 52 | `UCCUGUUGAAGUCAGCUCG` | STC1 | -0.1259 |
| 53 | `AACAAGUUUACAUUGCUUC` | SUPT20HL2 | 0.6578 |

Once more, the final 7:

| strand | gene | seed-corrected z-score |
|---|---|---|
| `AAUCGAAAAAUCCCGUUUC` | OCA2 | 0.1884 |
| `AAUUCGAUGAUGCCUCUCC` | PLEKHO1 | -0.1276 |
| `UGGGCGUAAAGCAUAGUGG` | ARSI | 0.08424 |
| `AAAUCUUGUAAUCAGCUGC` | NEDD8 | -0.4459 |
| `UUUGAUAACCUCCUGCUGG` | C12orf57 | 0.4996 |
| `UCCUGUUGAAGUCAGCUCG` | STC1 | -0.1259 |
| `AACAAGUUUACAUUGCUUC` | SUPT20HL2 | 0.6578 |